23 sequences from publication PMC7862700 can be followed below.

By UniProt entry, the sequences of proteins in these tests, tags left out. Where a name states a change or a piece, a line headed by the entry shows the natural chain unless it says otherwise.
UniProt P32519: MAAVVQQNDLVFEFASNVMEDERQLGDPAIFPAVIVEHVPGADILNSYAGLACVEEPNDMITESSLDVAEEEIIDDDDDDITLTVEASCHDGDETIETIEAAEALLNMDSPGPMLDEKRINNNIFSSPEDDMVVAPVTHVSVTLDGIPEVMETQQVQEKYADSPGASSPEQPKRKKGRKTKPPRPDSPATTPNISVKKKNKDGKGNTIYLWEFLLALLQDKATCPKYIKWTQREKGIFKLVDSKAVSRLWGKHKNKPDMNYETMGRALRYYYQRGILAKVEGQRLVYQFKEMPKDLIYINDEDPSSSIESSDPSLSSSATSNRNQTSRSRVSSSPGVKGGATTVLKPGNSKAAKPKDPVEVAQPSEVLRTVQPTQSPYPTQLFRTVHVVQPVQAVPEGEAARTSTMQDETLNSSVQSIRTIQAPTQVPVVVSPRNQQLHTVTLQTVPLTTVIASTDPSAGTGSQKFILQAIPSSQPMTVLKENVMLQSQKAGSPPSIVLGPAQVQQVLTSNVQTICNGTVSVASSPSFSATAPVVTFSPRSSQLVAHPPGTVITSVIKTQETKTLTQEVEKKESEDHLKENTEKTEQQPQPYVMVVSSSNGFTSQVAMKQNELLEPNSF
UniProt P50549: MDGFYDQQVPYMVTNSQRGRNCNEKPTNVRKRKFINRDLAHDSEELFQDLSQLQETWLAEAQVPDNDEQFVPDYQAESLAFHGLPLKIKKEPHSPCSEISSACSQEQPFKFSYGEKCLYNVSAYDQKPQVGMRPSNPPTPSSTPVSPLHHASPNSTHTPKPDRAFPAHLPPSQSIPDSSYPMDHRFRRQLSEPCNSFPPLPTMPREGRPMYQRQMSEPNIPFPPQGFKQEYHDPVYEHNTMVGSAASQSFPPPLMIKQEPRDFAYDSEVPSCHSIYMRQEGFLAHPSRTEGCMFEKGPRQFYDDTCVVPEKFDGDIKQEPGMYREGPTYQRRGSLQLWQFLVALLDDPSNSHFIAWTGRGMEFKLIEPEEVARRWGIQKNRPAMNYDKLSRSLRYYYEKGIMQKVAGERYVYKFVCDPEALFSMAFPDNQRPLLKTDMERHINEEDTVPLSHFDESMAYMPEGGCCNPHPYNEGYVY

The list shows a part of the results, in another mix than the full data. For part of these data: At the low end of the ranking the order means little. The list shows a part of the results. For part of these data: The exact form of the protein is not confirmed.

Common to all, as to test: DAPPL (digital affinity profiling via proximity ligation, sequencing)
Conditions in all cases: 10 mM Tris-HCl pH 7.5, 50 mM NaCl, 1 mM DTT, 4% glycerol, room temperature, 30 min; GST-TFs on glutathione beads, 16-mer random dsDNA library, 0.1% …; high values mean tight binding; double strand, one strand shown; scale: fold enrichment (6-mer frequency, TF over GST control)

For assay [1], the target named is T1, ERG (UniProt P11308).
T1 sequence: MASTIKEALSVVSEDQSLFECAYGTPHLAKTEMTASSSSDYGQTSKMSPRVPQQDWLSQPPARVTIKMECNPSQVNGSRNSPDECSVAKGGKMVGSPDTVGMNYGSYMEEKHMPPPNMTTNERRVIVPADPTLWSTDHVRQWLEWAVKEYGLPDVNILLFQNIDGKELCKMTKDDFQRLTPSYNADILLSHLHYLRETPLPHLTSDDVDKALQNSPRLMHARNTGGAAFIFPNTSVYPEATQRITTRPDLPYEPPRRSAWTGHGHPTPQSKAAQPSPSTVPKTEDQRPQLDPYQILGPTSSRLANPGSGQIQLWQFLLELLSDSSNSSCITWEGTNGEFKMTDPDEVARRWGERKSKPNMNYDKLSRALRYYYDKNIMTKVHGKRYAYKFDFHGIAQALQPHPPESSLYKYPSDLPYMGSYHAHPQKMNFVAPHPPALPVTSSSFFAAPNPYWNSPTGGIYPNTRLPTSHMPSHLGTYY

The target of assay [2] is ELF1 (UniProt P32519).
Assay [3] has as its target T2, ELK4 (UniProt P28324-2).
T2 sequence: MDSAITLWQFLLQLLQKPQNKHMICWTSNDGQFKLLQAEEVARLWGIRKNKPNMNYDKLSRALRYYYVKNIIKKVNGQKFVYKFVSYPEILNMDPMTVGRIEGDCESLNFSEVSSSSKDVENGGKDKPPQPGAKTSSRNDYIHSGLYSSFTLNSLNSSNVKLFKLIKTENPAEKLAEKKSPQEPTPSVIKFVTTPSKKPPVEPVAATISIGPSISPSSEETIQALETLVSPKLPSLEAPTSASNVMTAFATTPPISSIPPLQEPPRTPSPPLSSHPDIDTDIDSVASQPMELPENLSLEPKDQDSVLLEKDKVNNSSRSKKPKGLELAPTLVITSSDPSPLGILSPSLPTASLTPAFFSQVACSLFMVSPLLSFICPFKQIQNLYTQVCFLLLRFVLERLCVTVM

Assay [4] concerns the target T3, ETV4 (UniProt P43268).
T3 sequence: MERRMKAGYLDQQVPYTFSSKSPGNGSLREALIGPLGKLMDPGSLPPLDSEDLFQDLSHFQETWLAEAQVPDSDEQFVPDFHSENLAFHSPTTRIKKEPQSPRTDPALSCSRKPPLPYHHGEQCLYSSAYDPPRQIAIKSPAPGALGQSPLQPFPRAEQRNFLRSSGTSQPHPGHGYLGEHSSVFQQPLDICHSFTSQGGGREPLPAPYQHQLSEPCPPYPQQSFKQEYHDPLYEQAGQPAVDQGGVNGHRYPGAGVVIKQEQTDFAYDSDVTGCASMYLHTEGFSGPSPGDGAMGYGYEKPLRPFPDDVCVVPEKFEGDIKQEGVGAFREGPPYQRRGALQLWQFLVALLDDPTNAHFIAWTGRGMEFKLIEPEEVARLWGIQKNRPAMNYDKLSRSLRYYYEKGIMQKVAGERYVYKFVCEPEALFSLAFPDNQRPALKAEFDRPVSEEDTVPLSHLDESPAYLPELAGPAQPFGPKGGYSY

In assay [5] the target is ETV1 (UniProt P50549).
The target of assay [6] is T4, ERF (UniProt P50548).
T4 sequence: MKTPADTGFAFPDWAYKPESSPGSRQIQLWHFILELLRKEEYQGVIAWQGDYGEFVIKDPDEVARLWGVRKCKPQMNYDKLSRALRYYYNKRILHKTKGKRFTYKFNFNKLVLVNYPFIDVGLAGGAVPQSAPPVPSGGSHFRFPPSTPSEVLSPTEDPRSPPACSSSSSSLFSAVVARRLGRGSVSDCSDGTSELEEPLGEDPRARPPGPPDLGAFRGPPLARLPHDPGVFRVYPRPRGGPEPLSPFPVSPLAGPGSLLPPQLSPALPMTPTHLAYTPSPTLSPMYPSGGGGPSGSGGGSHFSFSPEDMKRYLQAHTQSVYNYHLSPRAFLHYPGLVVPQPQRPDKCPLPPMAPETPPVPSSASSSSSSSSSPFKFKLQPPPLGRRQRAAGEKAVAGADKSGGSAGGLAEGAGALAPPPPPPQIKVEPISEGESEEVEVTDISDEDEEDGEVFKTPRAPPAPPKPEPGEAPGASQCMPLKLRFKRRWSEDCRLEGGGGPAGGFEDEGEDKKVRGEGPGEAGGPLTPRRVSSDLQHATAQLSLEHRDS

Consider GGCAGA, for which the binding signal in assay [1] amounted to 0.603; in assay [2], 0.6; in assay [3] it was 0.69; in assay [4], 0.663; in assay [5], 0.67; in assay [6], 0.662.
As to GGGTGA, the binding signal in assay [1] was found to be 0.643; in assay [2] it was 0.627; in assay [3] it was 0.663; in assay [4], 0.598; in assay [5], 0.623; in assay [6], 0.63.
Turning to GGGATA, the binding signal worked out at 0.791 in assay [1]; 0.782 in assay [2]; 0.77 in assay [3]; 0.707 in assay [4]; 0.794 in assay [5]; 0.774 in assay [6].
Regarding GGGCAG, the binding signal amounted to 0.558 in assay [1]; 0.629 in assay [2]; 0.588 in assay [3]; 0.565 in assay [4]; 0.603 in assay [5]; 0.636 in assay [6].
Take GAGTTC: the binding signal stood at 0.697 in assay [1]; 0.721 in assay [2]; 0.741 in assay [3]; 0.731 in assay [4]; 0.807 in assay [5]; 0.676 in assay [6].
Turning to GTGCGG, the binding signal stood at 0.642 in assay [1]; 0.645 in assay [2]; 0.551 in assay [3]; 0.637 in assay [4]; 0.617 in assay [5]; 0.634 in assay [6].
In the case of CGTGTG, the binding signal came to 0.409 in assay [1]; 0.424 in assay [2]; 0.462 in assay [3]; 0.427 in assay [4]; 0.465 in assay [5]; 0.434 in assay [6].
Regarding GTGGCG, the binding signal turned out to be 0.855 in assay [1]; 0.77 in assay [2]; 0.919 in assay [3]; 0.861 in assay [4]; 0.72 in assay [5]; 0.785 in assay [6].
As for AGTCAC, the binding signal in assay [1] is 0.846; in assay [2] it was 0.768; in assay [3], 0.769; in assay [4], 0.783; in assay [5] it was 0.781; in assay [6] it was 0.744.
On to ACCAGT, for which the binding signal was determined as 0.511 in assay [1]; 0.493 in assay [2]; 0.452 in assay [3]; 0.478 in assay [4]; 0.445 in assay [5]; 0.457 in assay [6].
As for GGGGCA, the binding signal in assay [1] amounted to 0.719; in assay [2] it was 0.695; in assay [3] it was 0.768; in assay [4] it was 0.635; in assay [5], 0.688; in assay [6] it was 0.782.
As to TGAGCC, the binding signal was 0.805 in assay [1]; 0.904 in assay [2]; 0.777 in assay [3]; 0.89 in assay [4]; 0.771 in assay [5]; 0.802 in assay [6].
Regarding GGCGGG, the binding signal stood at 0.348 in assay [1]; 0.33 in assay [2]; 0.338 in assay [3]; 0.324 in assay [4]; 0.368 in assay [5]; 0.344 in assay [6].
Take AGGCTG: the binding signal stood at 0.623 in assay [1]; 0.68 in assay [2]; 0.719 in assay [3]; 0.616 in assay [4]; 0.66 in assay [5]; 0.653 in assay [6].
With GGAGGC, the binding signal in assay [1] is 0.275; in assay [2], 0.238; in assay [3], 0.255; in assay [4] it was 0.244; in assay [5], 0.259; in assay [6], 0.231.
In the case of GCAGTA, the binding signal in assay [1] was 0.807; in assay [2], 0.863; in assay [3], 0.779; in assay [4], 0.855; in assay [5] it was 0.847; in assay [6] it was 0.957.
As for CTGGAG, the binding signal turned out to be 0.657 in assay [1]; 0.684 in assay [2]; 0.609 in assay [3]; 0.641 in assay [4]; 0.686 in assay [5]; 0.707 in assay [6].
GCCATG: the binding signal stood at 0.784 in assay [1]; 0.783 in assay [2]; 0.913 in assay [3]; 0.836 in assay [4]; 0.799 in assay [5]; 0.822 in assay [6].
Take CGGTTG: the binding signal in assay [1] was 0.798; in assay [2], 0.805; in assay [3] it was 0.963; in assay [4] it was 0.832; in assay [5], 0.765; in assay [6] it was 0.741.
As to AGGCGT, the binding signal in assay [1] worked out at 0.538; in assay [2], 0.499; in assay [3] it was 0.475; in assay [4] it was 0.47; in assay [5], 0.525; in assay [6], 0.456.
In the case of TGGACG, the binding signal turned out to be 0.832 in assay [1]; 0.818 in assay [2]; 0.861 in assay [3]; 0.852 in assay [4]; 0.805 in assay [5]; 0.796 in assay [6].
Turning to GTTGGA, the binding signal in assay [1] was determined as 0.468; in assay [2], 0.47; in assay [3], 0.406; in assay [4], 0.443; in assay [5], 0.467; in assay [6], 0.501.
Take GGACTG: the binding signal in assay [1] is 0.691; in assay [2], 0.764; in assay [3], 0.747; in assay [4] it was 0.697; in assay [5], 0.676; in assay [6] it was 0.704.
